From publication PMC5038948, “The Role of Neutrophil Proteins on the Amyloid Beta-RAGE Axis” (PLoS ONE, 2016) come the findings set out here.

Chains of the proteins cited; added tags and fusions are not shown. Lines headed by an entry give the natural chain unless they say otherwise; changes in a name come on top. Residues count along the entry.
UniProt P02769, residues 25-607: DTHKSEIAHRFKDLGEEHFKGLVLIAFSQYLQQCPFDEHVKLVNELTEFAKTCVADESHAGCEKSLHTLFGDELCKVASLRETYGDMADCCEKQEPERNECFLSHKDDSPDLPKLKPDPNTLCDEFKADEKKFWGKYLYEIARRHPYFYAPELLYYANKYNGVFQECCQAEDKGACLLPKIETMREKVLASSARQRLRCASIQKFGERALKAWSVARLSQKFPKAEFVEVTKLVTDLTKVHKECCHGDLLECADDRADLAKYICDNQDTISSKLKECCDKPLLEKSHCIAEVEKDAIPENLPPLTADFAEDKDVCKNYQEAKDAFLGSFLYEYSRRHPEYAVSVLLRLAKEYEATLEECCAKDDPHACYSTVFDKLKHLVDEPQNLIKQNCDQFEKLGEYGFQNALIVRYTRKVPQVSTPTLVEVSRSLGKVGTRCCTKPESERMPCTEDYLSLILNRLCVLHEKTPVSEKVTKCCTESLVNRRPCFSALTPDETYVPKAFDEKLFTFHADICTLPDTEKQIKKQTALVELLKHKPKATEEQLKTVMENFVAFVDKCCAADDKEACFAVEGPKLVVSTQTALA
UniProt Q15109, residues 23-342: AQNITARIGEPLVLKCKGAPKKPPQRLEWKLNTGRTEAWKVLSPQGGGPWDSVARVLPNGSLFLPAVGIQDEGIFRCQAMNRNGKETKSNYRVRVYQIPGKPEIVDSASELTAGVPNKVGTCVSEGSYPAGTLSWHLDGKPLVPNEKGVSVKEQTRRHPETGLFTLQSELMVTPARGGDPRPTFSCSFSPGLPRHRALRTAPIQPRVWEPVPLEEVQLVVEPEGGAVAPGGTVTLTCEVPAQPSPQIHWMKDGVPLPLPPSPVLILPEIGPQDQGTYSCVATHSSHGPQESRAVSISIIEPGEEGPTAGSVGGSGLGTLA

These are yes or no findings as the source states them, for the method shown. Some entries that bind do so weakly or less than the wild type.

The target in assay [1] is T1, cationic antimicrobial protein of 37kDa (CAP37) (human) (UniProt P20160).
T1 sequence: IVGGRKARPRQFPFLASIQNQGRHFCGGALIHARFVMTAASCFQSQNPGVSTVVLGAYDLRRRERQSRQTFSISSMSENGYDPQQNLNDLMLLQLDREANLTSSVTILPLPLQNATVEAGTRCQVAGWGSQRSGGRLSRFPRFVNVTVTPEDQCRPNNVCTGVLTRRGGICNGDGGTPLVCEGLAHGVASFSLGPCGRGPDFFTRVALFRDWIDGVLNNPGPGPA
In words: far-Western, overlay or dot blot; 0.5 μg Aβ1-42 and 1 μg CAP37, neutrophil elastase, cathepsin G or BSA spotted on nitrocellulose; RAGE Fc chimera […] ([…]) overnight at 4°C, pre-incubated without or with GM-0111; detected with rabbit anti-RAGE; both purified.

In assay [2] the target is bovine serum albumin (BSA) (bovine) (UniProt P02769). In words: ELISA; CAP37, neutrophil elastase, cathepsin G or Aβ1-42 (0.5 μg/well) or BSA (1000 μg/well) coated on Maxisorp plates in PBS pH 7.4; RAGE Fc chimera 0–[…] in PBST with 0.1% BSA, 37°C, 70 min; bound RAGE detected with goat anti-RAGE; BSA subtracted as background for KD; both purified.
For assay [3] the target is unchanged. In words: far-Western, overlay or dot blot; 0.5 μg Aβ1-42 and 1 μg CAP37, neutrophil elastase, cathepsin G or BSA spotted on nitrocellulose; RAGE Fc chimera […] ([…]) overnight at 4°C, pre-incubated without or with GM-0111; detected with rabbit anti-RAGE; both purified.

As to “Recombinant human RAGE Fc chimera (from UniProt Q15109 23-342) (Fc fusion)”, in assay [1], the binding result is on record as “binds”.
As for “Recombinant human RAGE Fc chimera (from UniProt Q15109 23-342) (Fc fusion; other documents disagree on this pair)”, the binding result is on record as “no binding (tested: 3.3 nM RAGE)” in assay [2] and “no binding (tested: 4.2 nM RAGE)” in assay [3].
